No constants are given. Whether binding was seen depends on the method and setting. In cells and extracts the contact can be indirect. Some entries that bind do so weakly or less than the wild type.

Amino acid sequences for entries named in this document (tags omitted). A change or cut given only in a name is not applied to a line headed by its entry.
UniProt P14618: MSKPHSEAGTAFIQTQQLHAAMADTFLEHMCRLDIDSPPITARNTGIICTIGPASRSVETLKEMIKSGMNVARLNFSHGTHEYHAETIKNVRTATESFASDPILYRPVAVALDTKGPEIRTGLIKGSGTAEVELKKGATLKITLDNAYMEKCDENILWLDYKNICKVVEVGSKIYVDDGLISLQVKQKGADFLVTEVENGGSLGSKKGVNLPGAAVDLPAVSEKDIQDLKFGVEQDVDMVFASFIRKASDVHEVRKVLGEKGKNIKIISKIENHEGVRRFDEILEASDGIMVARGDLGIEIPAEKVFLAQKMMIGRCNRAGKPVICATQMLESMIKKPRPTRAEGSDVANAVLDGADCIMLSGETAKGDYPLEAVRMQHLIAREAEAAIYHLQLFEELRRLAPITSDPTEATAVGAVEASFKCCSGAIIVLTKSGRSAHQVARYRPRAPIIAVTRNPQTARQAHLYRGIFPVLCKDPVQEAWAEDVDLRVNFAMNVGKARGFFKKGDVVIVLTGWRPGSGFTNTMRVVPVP
UniProt P52294: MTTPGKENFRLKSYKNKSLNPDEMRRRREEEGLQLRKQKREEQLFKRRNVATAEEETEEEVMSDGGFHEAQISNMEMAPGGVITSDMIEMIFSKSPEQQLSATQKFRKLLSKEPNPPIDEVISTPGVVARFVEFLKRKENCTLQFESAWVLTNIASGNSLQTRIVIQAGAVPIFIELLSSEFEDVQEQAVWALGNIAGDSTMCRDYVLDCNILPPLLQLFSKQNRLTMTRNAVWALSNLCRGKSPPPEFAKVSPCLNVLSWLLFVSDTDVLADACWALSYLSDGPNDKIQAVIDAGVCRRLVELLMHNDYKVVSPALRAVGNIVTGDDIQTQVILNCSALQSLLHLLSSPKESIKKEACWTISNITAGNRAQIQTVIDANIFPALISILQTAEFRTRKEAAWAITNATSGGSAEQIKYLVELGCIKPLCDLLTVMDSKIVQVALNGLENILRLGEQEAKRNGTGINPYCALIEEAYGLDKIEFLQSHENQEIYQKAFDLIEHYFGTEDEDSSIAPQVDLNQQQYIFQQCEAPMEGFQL

In experiment [1] the target is Flag-PKM2-S333A (UniProt P14618). Put plainly: cross-linking.
For experiment [2] the target is unchanged. Put plainly: co-IP.
The target of another experiment is Flag-PKM2-WT (UniProt P14618). Put plainly: co-IP.

“Flag-PKM2-S333A (from UniProt P14618 1-531) (enzyme)”: the binding entry with Flag-PKM2-S333A [1] is listed as “binds”.

As for importin α5 (from UniProt P52294 1-538), the binding result with Flag-PKM2-S333A [2] and in the experiment with Flag-PKM2-WT was “binds” in each case.

Source of the values: publication doi:10.1101/2023.09.14.557850.
